The subject of this assay is L1210 leukemia ip in BDF1 mice, survival T/C. Kind of assay: NCI In Vivo Anticancer Drug Screen. Data for tumor model L1210 Leukemia (intraperitoneal) in B6D2F1 (BDF1) mice. The note with it: T/C endpoint: mean survival time, higher T/C = longer survival.
[1] abbreviates: dose: 200.0 mg/kg/injection, schedule: Q01DX009 (ip), vehicle: Klucel (hydroxypropylcellulose) (HPC).
[2] abbreviates: dose: 400.0 mg/kg/injection, schedule: Q01DX009 (ip), vehicle: Klucel (hydroxypropylcellulose) (HPC).
Where [3] appears, read: dose: 400.0 mg/kg/injection, schedule: Q04DX003 (ip), vehicle: Klucel (hydroxypropylcellulose) (HPC).
The mark [4] stands for this setting: dose: 400.0 mg/kg/injection, schedule: Q01DX009 (ip), vehicle: saline with Tween-80.
[5] abbreviates: dose: 50.0 mg/kg/injection, schedule: Q01DX009 (ip), vehicle: saline.
The mark [6] stands for this setting: dose: 200.0 mg/kg/injection, schedule: Q04DX003 (ip), vehicle: saline.
Setting [7] is: dose: 400.0 mg/kg/injection, schedule: Q04DX003 (ip), vehicle: saline.
Setting [8] is: dose: 150.0 mg/kg/injection, schedule: Q01DX001 (ip), vehicle: saline.
The mark [9] stands for this setting: dose: 300.0 mg/kg/injection, schedule: Q01DX001 (ip), vehicle: saline.
[10] abbreviates: dose: 400.0 mg/kg/injection, schedule: Q04DX003 (ip), vehicle: saline with Tween-80.
The mark [11] stands for this setting: dose: 100.0 mg/kg/injection, schedule: Q04DX002 (ip), vehicle: Klucel (hydroxypropylcellulose) (HPC).
The mark [12] stands for this setting: dose: 400.0 mg/kg/injection, schedule: Q04DX002 (ip), vehicle: saline.
The mark [13] stands for this setting: dose: 200.0 mg/kg/injection, schedule: Q04DX003 (ip), vehicle: saline with Tween-80.
[14] abbreviates: dose: 400.0 mg/kg/injection, schedule: Q01DX001 (ip), vehicle: saline with Tween-80.

The list is a part of this screen's results and no random one: it gathers tests that were run many times, whatever their T/C, doses with no T/C, and many T/C values between a quarter and a half above the control. Further doses and runs are listed elsewhere. T/C gives the treated animals as a percentage of the vehicle group. Some entries give survivors of the animals treated and no T/C: the source files T/C as zero there, which appears to mark a toxic dose or a test without result, not a measured value. Some doses without a T/C left all or most animals alive at the check, yet need not have been tolerated: the source hardly ever lists a survival T/C far under the control, and the zero likely stands for such cases as well. Counts of survivors are from the toxicity check (mostly the fifth day) where no day follows; animals may have died later. Schedule codes are those of the source, taken here to give the interval after Q, in days (D) or hours (H), and the number of doses after X. Some entries hold several experiments; their values stand side by side, smallest first. Some schedules carry Z or #; the key to these is not given. Where survival is the endpoint, the PubChem record calls one and a half times the control and up active, and a quarter to a half above the control has no call in these data; cut-offs in other NCI protocols can differ. Signs of the kind (2×) count equal records among those shown. Some T/C values carry the count of animals alive at the toxicity check (mostly the fifth day); where none is given, no animal had died by that day.

`C=CCSc1ccnc(N)n1`: under “dose: 200.0 mg/kg/injection, schedule: Q01DX001 (ip), vehicle: Klucel (hydroxypropylcellulose) (HPC)”, the survivor count is given as 3 of 6.

With `OC(CCN1CCCCC1)(c1ccccc1)C1CCCC1` (stereo not given), the survivor count under setting [1] is given as 0 of 6; the survivor count (dose: 200.0 mg/kg/injection, schedule: Q04DX003 (ip), vehicle: Klucel (hydroxypropylcellulose) (HPC)) is given as 2 of 4; the survivor count under setting [2] is 0 of 6; the survivor count under setting [3] was 0 of 4.

`C[CH2][Pb]([CH2]C)([CH2]C)[S]c1ccc(Cl)cc1`: where the note is “dose: 100.0 mg/kg/injection, schedule: Q04DX002 (sc), vehicle: olive oil, sesame oil, peanut oil”, the survivor count is on record as 3 of 3.

In the case of `O=C(Nc1cccc(F)c1)Nc1ccc(C(=O)O)c(O)c1`, under setting [4], the survivor count was 0 of 6.

Turning to `CCC1CC[N-]CC1.CCC1CC[N-]CC1.[Cl][Pt+2]([Cl])([Cl])[Cl]`, the survivor count reads like this: under setting [5], 2 of 6; (dose: 50.0 mg/kg/injection, schedule: Q04DX003 (ip), vehicle: saline) 4 of 6; (dose: 100.0 mg/kg/injection, schedule: Q04DX003 (ip), vehicle: saline) 2 of 6; under setting [6], 1 of 6; under setting [7], 0 of 6.

Consider `COc1ccc(SC(=O)Nc2cc([N+](=O)[O-])ccc2Cl)cc1`, for which the survivor count is, setting by setting: (dose: 100.0 mg/kg/injection, schedule: Q01DX009 (ip), vehicle: saline with Tween-80) 6 of 6; (dose: 200.0 mg/kg/injection, schedule: Q01DX009 (ip), vehicle: saline with Tween-80) 6 of 6; under setting [4], 6 of 6.

Regarding `CCCCS(=O)(=O)Nc1ccc(Nc2c3ccccc3nc3ccccc23)c(OC)c1`, the T/C was 127 % of control (dose: 6.25 mg/kg/injection, schedule: Q01DX009 (ip), vehicle: saline); 139 % of control (dose: 12.5 mg/kg/injection, schedule: Q01DX009 (ip), vehicle: Klucel (hydroxypropylcellulose) (HPC)); 148 % of control (dose: 25.0 mg/kg/injection, schedule: Q01DX009 (ip), vehicle: Klucel (hydroxypropylcellulose) (HPC)); 137 % of control [5 of 6 alive] under setting [5]. The survivor count runs as follows: (dose: 100.0 mg/kg/injection, schedule: Q01DX009 (ip), vehicle: Klucel (hydroxypropylcellulose) (HPC)) 6 of 6; under setting [1], 6 of 6.

On to `CC(=O)Nc1ccc(S(=O)(=O)SC(F)(F)F)cc1`, for which the survivor count by setting is: (dose: 40.0 mg/kg/injection, schedule: Q01DX001 (ip), vehicle: saline) 2 of 6; (dose: 75.0 mg/kg/injection, schedule: Q01DX001 (ip), vehicle: saline) 1 of 6; (dose: 80.0 mg/kg/injection, schedule: Q01DX001 (ip), vehicle: saline) 0 of 6; under setting [8], 0 of 6; under setting [9], 0 of 6.

Take `CC(C)(C)c1ccc(O)c(C(C)(C)C)c1`: the survivor count under setting [10] is 3 of 6.

Take `O=C(Nc1ccccc1)OC/C=C\c1ccccc1`: the survivor count under setting [11] is on record as 3 of 3.

For the compound `CC(=O)OC1CCCCC1NC(=O)NCCCl` (stereo not given), the survivor count by setting is: under setting [11], 1 of 3; (dose: 200.0 mg/kg/injection, schedule: Q04DX002 (ip), vehicle: Klucel (hydroxypropylcellulose) (HPC)) 1 of 3.

Take `O=C(O)CCC(NC(=O)OCc1ccccc1)C(=O)OCc1ccccc1` (stereo not given): under setting [3], the survivor count is recorded as 0 of 6.

Consider `O=C(CCl)N=c1cc(-c2ccc(Cl)cc2)ss1`, for which the survivor count by setting is: (dose: 200.0 mg/kg/injection, schedule: Q04DX002 (ip), vehicle: saline) 0 of 3; under setting [12], 0 of 3.

For the compound `Cc1cccc(C(=O)NNC(=O)C(=O)NNC(=O)c2cccc(C)c2)c1`, the T/C runs as follows: (dose: 100.0 mg/kg/injection, schedule: Q04DX003 (ip), vehicle: saline with Tween-80) 93, 95 (2×), 97 % of control; under setting [13], 90, 103, 104 % of control; under setting [10], 90, 92 (2×), 98 % of control. Also, the survivor count under setting [13] is 6 of 6.

In the case of `CCCCCCN(CCCCCC)CP(=S)(CN(CCCCCC)CCCCCC)CN(CCCCCC)CCCCCC`, the survivor count under setting [14] was 0 of 6.

With `Clc1ccc(CNc2ccc(Cl)c(Cl)c2)cc1`, for the setting “dose: 100.0 mg/kg/injection, schedule: Q04DX002 (ip), vehicle: saline with Tween-80”, the survivor count was 2 of 3.

Turning to `CCCCCCCCCCCc1cc(=O)n(-c2cc(Cl)ccc2Cl)n1C`, the survivor count reads like this: under setting [13], 4 of 6; under setting [10], 2 of 6.

On to `Cc1nc(Cl)c(C#N)c(C(F)(F)F)c1N`, for which the survivor count (dose: 200.0 mg/kg/injection, schedule: Q01DX Z (ip), vehicle: carboxymethylcellulose (CMC)) is 2 of 6.

In the case of `Cc1cnc2c(=N)n(C(=O)C(F)(F)F)n(C)c2n1`, the survivor count under setting [2] was 3 of 6.

Regarding `CCCCCCCCCN(CCCC)CCCC`, the survivor count reads like this: (dose: 100.0 mg/kg/injection, schedule: Q01DX001 (ip), vehicle: saline with Tween-80) 0 of 6; (dose: 200.0 mg/kg/injection, schedule: Q01DX001 (ip), vehicle: saline with Tween-80) 0 of 6; under setting [14], 0 of 6.

For `Cc1ccnc(/C=N/NC(N)=S)c1`, the survivor count under setting [12] is 0 of 3.

On to `Cc1cc([N+](=O)[O-])cc([N+](=O)[O-])c1OC(=O)c1ccc(N=C(N)N)cc1`, for which the survivor count (dose: 25.0 mg/kg/injection, schedule: Q01DX009 (ip), vehicle: saline) is recorded as 3 of 6; the survivor count under setting [5] is given as 6 of 6; the survivor count (dose: 100.0 mg/kg/injection, schedule: Q01DX009 (ip), vehicle: saline) is 6 of 6; the survivor count (dose: 200.0 mg/kg/injection, schedule: Q01DX009 (ip), vehicle: saline) was 1 of 6 and 2 of 6; the survivor count under setting [6] was 6 of 6; the survivor count (dose: 400.0 mg/kg/injection, schedule: Q01DX009 (ip), vehicle: saline) is listed as 0 of 6. For the same compound, the survivor count under setting [7] is on record as 1 of 6.

Regarding `N=C(N)c1ccc(-c2cc3cc(C(=N)N)ccc3s2)cc1`, the survivor count is, setting by setting: under setting [6], 2 of 4; under setting [7], 0 of 4.

As to `CC[N+](C)(C)C1CCCCC1`, the survivor count is given as 2 of 6 under setting [8] and 0 of 6 under setting [9].

Take `COc1ccc2c(c1)CCC1(C)C2=CC(=O)/C1=C\[O-].COc1ccc2c(c1)CCC1(C)C2=CC(=O)/C1=C\[O-].[Cu+2]` (stereo not given): the survivor count by setting is: (dose: 200.0 mg/kg/injection, schedule: Q04DX003 (ip), vehicle: saline sonified) 6 of 6; (dose: 400.0 mg/kg/injection, schedule: Q04DX003 (ip), vehicle: saline sonified) 6 of 6.

Values taken from PubChem BioAssay AID248 (DTP/NCI, 2004).
